Most values lie at the floor of the assay. Slopes are relative: functional sequences can read slightly below zero.
Each substance was assayed on Saccharomyces cerevisiae PS128 hsf1 delta, HSF1(1-493) fusion (assay: growth estimate (transactivation domain function in HSF1 fusion, heat-shock survival) (a.u. (slope of normalised read count over time)); higher = stronger growth at 37°C, i.e. more transactivation activity). Conditions: library: random library.

Row | Substance | growth estimate
1 | LRVT | < -0.25
2 | PSDERGSGLLSSRIRG | < -0.25
3 | TRHDGETGHRIRSTSVSRYT | < -0.25
4 | LLIGDIRQRLLY | < -0.25
5 | MCVDLPGTEHLLRKQCQ | < -0.25
6 | TCPR | < -0.25
7 | GFRLRAWGPYVHRR | < -0.25
8 | CRSQS | < -0.25
9 | AMGGSGWARSLGLSSTVSWV | < -0.25
10 | CAEVVSADGYCAMLGRCPQT | < -0.25
11 | WLAISIRNTYCFFDPRAKAR | < -0.25
12 | QIDVPSRVRTQSPGEVQWAA | < -0.25
13 | YVYDRIAKDSCPCDSVPWTA | < -0.25
14 | CYLHASTLASVTNPLSYISG | < -0.25
15 | KMVCFA | < -0.25
16 | GLRSVRGIRFVRVDGHSAHG | < -0.25
17 | QYGVLPWRANIVPYFVVNRS | < -0.25
18 | LFIPRTFACNRPHAEG | < -0.25
19 | DSHP | < -0.25
20 | TVIFQTL | < -0.25
21 | FAEAPGRLFTSVEVRHRQFC | < -0.25
22 | RNLVTARYSLEPKDDLQGVE | < -0.25
23 | PLMRVSYSRHSKESAYVLFL | < -0.25

4 entries from above, field by field.
LLIGDIRQRLLY
  growth estimate = < -0.25
TCPR
  growth estimate = < -0.25
WLAISIRNTYCFFDPRAKAR
  growth estimate = < -0.25
QYGVLPWRANIVPYFVVNRS
  growth estimate = < -0.25

The listing continues:

Row | Substance | growth estimate
24 | GGQFLG | < -0.25
25 | LQPKISRIA | < -0.25
26 | IGVTSA | < -0.25
27 | KTSGYRRNDGEDMGGLYAGS | < -0.25
28 | FLVQSNDTGHYKVALISVPY | < -0.25
29 | GKLVPEYQAPQGSDGALCGS | < -0.25
30 | CINYLRVQWLQAETVIDSRD | < -0.25
31 | CILHSSMLLFG | < -0.25
32 | PSWLRSPPDGEGRTRGQTLC | < -0.25
33 | NSIRSRVNLAMEPLKSTKHR | < -0.25
34 | LETVSAVTFVLT | < -0.25
35 | VGINHDGRRVMVYTARG | < -0.25
36 | PWPLAI | < -0.25
37 | KTSSGAARCP | -0.246
38 | GVSSLRDVTGRW | -0.25
39 | LTPA | < -0.25
40 | TIERGRRNWCENPGQGCVGR | < -0.25
41 | ATLMERLRNRIASIGIMTQA | < -0.25
42 | SLSADLEHQMARGRQLPCCL | < -0.25
43 | TMMQHRNWVEFTGWIGGSLH | < -0.25
44 | NLLIATSATLGPTPMFAPPP | < -0.25
45 | APKVGDGYESRP | < -0.25
46 | TRAMSSTAGSRSEPCRVFPR | < -0.25

Row | Substance | growth estimate
47 | SRAGMGFGSSSGRYSSTTRR | < -0.25
48 | GDENMSAFFQRLVSARRGTT | -0.243
49 | SARIRAVL | < -0.25
50 | QFFF | < -0.25
51 | GIIPT | < -0.25
52 | CDEARERDLRLSSEVITICR | < -0.25
53 | IRAVFPAWHVVGE | < -0.25
54 | CSWSCSMGEYGLCVAFL | < -0.25
55 | HGTSF | -0.248
56 | GGYRIPGSGDDLSLEVTERS | < -0.25
57 | VDFLPGYARRGKGLVIDPRY | < -0.25
58 | TFVLEPVKCRGT | < -0.25
59 | LTGAMTFSAGSTTYVGESRL | < -0.25
60 | AGCDMDVCELIVILRGLRTA | < -0.25
61 | TRVIRPGSCLHRIALRRSTA | < -0.25
62 | YGLIQTRRLNLHVLCDP | < -0.25
63 | AVSRILCVSERNAFAWASN | < -0.25
64 | CIGTGIE | < -0.25
65 | AQDASRIKLYSCRGPMSALL | < -0.25
66 | TKADPEGPLAGSHRAVVIAQ | < -0.25
67 | LLRDGNRLPYDPMRWRLTTT | < -0.25
68 | RWDPHGLSEPGRSRD | < -0.25
69 | TPG | < -0.25

Row | Substance | growth estimate
70 | VGEYPRPPNRRTGYDNHQIK | < -0.25
71 | TRYLLSPSFKVFASSFLS | < -0.25
72 | PICRLGNTIFNRCNSALLNQ | < -0.25
73 | GDSVTPIVRGSVDDSSSVAR | < -0.25
74 | GVLTRKSSPSIRVKTPLLV | < -0.25
75 | RLNTGGSVFSVEGGPRGILA | < -0.25
76 | RYSGAAIWSVTRRHLIEATL | < -0.25
77 | LNDKLLRPSGLAVSGPEC | < -0.25
78 | GTHD | < -0.25
79 | VRVLNGLGAANNETITGAGS | < -0.25
80 | GLIMSRVLYSTYTQHPTISR | -0.246
81 | GHRLIHPDRDH | < -0.25
82 | FVLGATVTIRGRFWACVTL | < -0.25
83 | HLQGSNIYH | < -0.25
84 | QTIVASWSLG | < -0.25
85 | VFRTTFKRVKQLVNAQSAPS | < -0.25
86 | SDEGQ | < -0.25
87 | WWRAHLCYLMAFARS | < -0.25
88 | VIIAR | < -0.25
89 | IWSKNSIVVSVSSKGLSLGR | < -0.25
90 | SRKR | < -0.25
91 | HRDVNICRQTWVRNMCGLRP | < -0.25
92 | LPFLVFRITKVSARGQSVRG | -0.237

Row | Substance | growth estimate
93 | SRSIGVYCSFKKQQRRWESS | < -0.25
94 | IDSNRYTSRR | < -0.25
95 | LRICLGLV | < -0.25
96 | REHGSRICEASDS | < -0.25
97 | LGREPTWKVRRYVGIPPSV | < -0.25
98 | GVLRSVMGSAE | < -0.25
99 | RYLSPECDLSRDEACGMGAC | < -0.25
100 | RKLRHIEVSHPFSMVVHLHH | < -0.25
101 | VWSLGHTQ | < -0.25
102 | SGHPREWRL | < -0.25
103 | SSPGLRASGTGSSGGKPKEA | -0.25
104 | LNAMQSFLSTK | < -0.25
105 | RPSVPSGNPDRADKHE | < -0.25
106 | AQYYPLGQKLDLRVPHFNPS | < -0.25
107 | AVLGPVDNESAPAFMQAWAP | < -0.25
108 | STESSRHRPHARHALTASLT | < -0.25
109 | HVPRCWPLYIAMLVHNVGLP | < -0.25
110 | LIGL | < -0.25
111 | FSWN | < -0.25
112 | ARHDAWL | < -0.25
113 | SSCNTIRMRSPAAVSVYDPI | < -0.25
114 | PTLTGVPNSRYKHTELPIAS | < -0.25
115 | ANRFQVWCLLAWQRLYDLRI | < -0.25

Row | Substance | growth estimate
116 | RCKTPQTGVIRL | < -0.25
117 | AGEIVGASACRSFGEGRSED | < -0.25
118 | SFSCVRCRQEAHMEKPRERC | < -0.25
119 | TTSSVKSPSERITLFASLLL | -0.248
120 | SVAARA | < -0.25
121 | GYPGPLSRFCS | -0.243
122 | RQQIAAGVGGSHVGRSPPQT | < -0.25
123 | EGTLLAVPNTMCLLLMEVEL | < -0.25
124 | CTFHGDPASDRRR | < -0.25
125 | QGYKRGV | -0.0786
126 | DKLPRFA | -0.231
127 | AVGNGEDARDVTGKQA | < -0.25
128 | DGCTRCAFGRV | < -0.25
129 | VSSN | < -0.25
130 | YVSLP | < -0.25
131 | QARESRPLRKNRENGCGLEG | < -0.25
132 | KRSKVTRRVAPIYMLHNVTI | < -0.25
133 | LYVRMRRVLTGNTQARN | < -0.25
134 | QLTEEVTFRLSAD | < -0.25
135 | RCSQT | < -0.25
136 | YRPVTIGNWFEVTLGGRELP | < -0.25
137 | CGEV | < -0.25
138 | ISLLARSTLSKRKSICGRLC | < -0.25

2 entries from above, as tab-separated lines:
Row	Substance	growth estimate
125	QGYKRGV	-0.0786
128	DGCTRCAFGRV	< -0.25

Next records

Row | Substance | growth estimate
139 | RKYGYTTMSFKEY | < -0.25
140 | PAGLVSE | < -0.25
141 | QLR | < -0.25
142 | GPWSKMDY | < -0.25
143 | VRTVVS | < -0.25
144 | LGMRSYQQFGAWGRGVRRLR | < -0.25
145 | VLIPSRVIEQNNGDVGSMAR | < -0.25
146 | VSNWIPPILATLGTPPILKS | < -0.25
147 | SHIVAFRHLGRVASCRVH | < -0.25
148 | TQENKRRDT | < -0.25
149 | WLKGLRIAEHKNMCGHDHWM | < -0.25
150 | YSSTV | < -0.25
151 | IVRRTIVSE | < -0.25
152 | PPSSPTVQGREASITCCE | < -0.25
153 | GEVMLILPKHKIVF | < -0.25
154 | KIQKTHVRYCSVYHQAARIP | < -0.25
155 | QRIVMVGLRVANDAINHTQF | < -0.25
156 | CTDISGLRVRLWSEHGS | < -0.25
157 | LPAARSMG | < -0.25
158 | ATAP | < -0.25

Exported as a markdown table: part of the list above.

| Row | Substance | growth estimate |
| --- | --- | --- |
| 153 | GEVMLILPKHKIVF | < -0.25 |
| 154 | KIQKTHVRYCSVYHQAARIP | < -0.25 |
| 155 | QRIVMVGLRVANDAINHTQF | < -0.25 |
| 156 | CTDISGLRVRLWSEHGS | < -0.25 |
| 157 | LPAARSMG | < -0.25 |
| 158 | ATAP | < -0.25 |

From the supplement of paper PMC5949888
